# Reference: the supplement of paper PMC12823440, “Inhibitors supercharge kinase turnover through native proteolytic circuits” (Nature, 2025)
# By UniProt entry, the sequences of proteins in these tests, tags left out. Where a name states a change or a piece, a line headed by the entry shows the natural chain unless it says otherwise.
# UniProt P49137, whole entry, looked up: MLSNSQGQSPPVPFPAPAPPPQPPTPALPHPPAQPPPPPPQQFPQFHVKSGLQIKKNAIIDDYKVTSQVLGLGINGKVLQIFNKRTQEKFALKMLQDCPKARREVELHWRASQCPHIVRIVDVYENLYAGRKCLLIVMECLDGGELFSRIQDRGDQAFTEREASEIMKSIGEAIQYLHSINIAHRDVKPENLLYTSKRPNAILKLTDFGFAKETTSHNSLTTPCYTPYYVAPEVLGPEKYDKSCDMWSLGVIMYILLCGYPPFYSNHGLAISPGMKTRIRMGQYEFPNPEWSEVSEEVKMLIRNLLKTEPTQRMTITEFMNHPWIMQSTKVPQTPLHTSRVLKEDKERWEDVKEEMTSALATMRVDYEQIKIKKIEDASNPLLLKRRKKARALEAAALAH
# UniProt Q9BUB5: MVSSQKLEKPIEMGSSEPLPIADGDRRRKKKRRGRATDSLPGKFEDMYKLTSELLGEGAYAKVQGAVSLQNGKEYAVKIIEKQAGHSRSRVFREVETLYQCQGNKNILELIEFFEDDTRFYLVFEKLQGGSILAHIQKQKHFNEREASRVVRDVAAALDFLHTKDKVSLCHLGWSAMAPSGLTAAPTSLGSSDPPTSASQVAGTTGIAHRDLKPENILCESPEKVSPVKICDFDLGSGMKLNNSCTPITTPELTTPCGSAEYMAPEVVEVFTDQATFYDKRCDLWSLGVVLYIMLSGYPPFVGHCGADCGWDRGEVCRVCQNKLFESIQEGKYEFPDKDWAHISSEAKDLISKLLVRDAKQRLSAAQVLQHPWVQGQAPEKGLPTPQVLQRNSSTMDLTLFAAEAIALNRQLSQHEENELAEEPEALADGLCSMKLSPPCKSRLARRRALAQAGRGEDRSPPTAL
# UniProt Q16288, whole entry, looked up: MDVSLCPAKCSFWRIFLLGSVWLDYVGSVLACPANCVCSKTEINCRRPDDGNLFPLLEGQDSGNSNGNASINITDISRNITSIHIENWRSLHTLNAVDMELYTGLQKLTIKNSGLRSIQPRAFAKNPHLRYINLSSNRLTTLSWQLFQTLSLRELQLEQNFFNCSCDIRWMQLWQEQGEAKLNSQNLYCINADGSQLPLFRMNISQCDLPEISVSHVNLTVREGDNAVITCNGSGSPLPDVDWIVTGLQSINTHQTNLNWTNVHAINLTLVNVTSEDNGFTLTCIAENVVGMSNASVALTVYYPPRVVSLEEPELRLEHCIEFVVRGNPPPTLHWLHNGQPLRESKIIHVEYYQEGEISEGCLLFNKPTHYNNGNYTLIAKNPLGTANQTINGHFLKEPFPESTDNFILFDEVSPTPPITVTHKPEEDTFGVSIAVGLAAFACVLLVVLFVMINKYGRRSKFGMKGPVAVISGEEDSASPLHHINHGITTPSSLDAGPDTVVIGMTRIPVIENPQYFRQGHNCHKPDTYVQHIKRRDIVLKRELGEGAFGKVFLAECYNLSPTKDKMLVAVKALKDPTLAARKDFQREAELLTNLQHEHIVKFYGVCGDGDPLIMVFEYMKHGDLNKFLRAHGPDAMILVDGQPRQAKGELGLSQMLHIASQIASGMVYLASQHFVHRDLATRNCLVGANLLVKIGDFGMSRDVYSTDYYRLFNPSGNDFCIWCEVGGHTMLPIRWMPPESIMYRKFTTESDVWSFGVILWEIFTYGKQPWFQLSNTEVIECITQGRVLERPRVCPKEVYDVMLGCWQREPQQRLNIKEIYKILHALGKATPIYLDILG
# UniProt O96013: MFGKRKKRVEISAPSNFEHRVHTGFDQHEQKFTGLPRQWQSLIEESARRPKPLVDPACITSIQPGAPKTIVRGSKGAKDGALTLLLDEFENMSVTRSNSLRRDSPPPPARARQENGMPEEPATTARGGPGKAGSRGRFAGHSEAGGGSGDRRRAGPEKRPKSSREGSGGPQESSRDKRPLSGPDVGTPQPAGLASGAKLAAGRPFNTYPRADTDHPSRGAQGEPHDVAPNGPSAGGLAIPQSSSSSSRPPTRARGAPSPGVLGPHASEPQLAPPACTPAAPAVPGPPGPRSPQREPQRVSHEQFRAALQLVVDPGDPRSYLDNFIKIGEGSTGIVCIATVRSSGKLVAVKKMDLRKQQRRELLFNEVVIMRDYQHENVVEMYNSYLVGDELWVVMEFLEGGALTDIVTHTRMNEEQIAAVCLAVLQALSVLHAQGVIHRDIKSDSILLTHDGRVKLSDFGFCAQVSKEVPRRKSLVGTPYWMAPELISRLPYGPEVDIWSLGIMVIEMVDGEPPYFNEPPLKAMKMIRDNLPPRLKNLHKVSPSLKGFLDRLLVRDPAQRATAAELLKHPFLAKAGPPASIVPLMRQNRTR
# UniProt Q96KB5: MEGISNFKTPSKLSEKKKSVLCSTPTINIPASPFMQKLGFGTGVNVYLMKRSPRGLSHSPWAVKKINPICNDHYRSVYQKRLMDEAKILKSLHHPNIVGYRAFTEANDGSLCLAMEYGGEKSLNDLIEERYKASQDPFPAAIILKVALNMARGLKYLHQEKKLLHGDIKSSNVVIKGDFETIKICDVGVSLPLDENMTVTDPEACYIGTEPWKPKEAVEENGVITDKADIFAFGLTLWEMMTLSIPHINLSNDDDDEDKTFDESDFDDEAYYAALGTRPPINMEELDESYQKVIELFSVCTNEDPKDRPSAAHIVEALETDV
# UniProt P09619, whole entry: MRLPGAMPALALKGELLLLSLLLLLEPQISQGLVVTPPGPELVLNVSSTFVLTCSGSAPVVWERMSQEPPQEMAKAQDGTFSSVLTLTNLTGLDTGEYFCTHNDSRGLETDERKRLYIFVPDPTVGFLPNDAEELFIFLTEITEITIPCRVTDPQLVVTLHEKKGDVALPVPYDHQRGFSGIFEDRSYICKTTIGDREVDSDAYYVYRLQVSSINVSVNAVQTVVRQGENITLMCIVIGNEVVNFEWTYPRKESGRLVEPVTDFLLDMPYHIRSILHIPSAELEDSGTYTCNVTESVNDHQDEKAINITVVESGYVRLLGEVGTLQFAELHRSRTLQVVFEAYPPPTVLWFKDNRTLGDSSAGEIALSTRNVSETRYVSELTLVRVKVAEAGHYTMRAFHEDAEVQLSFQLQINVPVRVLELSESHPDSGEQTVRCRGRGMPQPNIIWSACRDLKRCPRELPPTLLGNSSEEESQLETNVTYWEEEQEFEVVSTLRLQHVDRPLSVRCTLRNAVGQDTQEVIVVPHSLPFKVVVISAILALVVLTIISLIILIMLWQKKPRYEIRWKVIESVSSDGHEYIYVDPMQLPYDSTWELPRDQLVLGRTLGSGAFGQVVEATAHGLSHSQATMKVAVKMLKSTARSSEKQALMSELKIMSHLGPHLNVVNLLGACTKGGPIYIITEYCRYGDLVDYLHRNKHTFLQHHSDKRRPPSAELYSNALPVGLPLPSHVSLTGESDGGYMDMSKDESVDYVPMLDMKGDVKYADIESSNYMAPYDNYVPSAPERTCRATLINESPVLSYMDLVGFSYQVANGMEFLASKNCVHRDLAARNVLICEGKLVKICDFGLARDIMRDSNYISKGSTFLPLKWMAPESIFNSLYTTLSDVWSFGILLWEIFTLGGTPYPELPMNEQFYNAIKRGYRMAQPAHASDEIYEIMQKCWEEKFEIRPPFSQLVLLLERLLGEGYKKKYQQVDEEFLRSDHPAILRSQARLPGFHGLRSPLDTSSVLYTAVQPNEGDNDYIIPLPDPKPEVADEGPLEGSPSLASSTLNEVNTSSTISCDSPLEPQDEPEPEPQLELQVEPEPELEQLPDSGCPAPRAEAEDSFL
# UniProt Q15118, whole entry, looked up: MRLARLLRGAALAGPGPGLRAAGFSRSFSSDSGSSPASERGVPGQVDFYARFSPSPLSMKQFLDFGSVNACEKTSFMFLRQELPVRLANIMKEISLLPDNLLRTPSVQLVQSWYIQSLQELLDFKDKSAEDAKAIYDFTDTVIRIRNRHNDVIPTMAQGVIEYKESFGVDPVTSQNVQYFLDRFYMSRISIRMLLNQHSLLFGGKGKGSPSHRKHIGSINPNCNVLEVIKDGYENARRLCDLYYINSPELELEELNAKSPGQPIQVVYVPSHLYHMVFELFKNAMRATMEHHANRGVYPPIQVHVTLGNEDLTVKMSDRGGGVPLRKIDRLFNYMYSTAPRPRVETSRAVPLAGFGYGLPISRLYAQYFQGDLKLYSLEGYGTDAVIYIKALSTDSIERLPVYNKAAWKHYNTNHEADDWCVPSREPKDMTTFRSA
# UniProt Q9UBF8: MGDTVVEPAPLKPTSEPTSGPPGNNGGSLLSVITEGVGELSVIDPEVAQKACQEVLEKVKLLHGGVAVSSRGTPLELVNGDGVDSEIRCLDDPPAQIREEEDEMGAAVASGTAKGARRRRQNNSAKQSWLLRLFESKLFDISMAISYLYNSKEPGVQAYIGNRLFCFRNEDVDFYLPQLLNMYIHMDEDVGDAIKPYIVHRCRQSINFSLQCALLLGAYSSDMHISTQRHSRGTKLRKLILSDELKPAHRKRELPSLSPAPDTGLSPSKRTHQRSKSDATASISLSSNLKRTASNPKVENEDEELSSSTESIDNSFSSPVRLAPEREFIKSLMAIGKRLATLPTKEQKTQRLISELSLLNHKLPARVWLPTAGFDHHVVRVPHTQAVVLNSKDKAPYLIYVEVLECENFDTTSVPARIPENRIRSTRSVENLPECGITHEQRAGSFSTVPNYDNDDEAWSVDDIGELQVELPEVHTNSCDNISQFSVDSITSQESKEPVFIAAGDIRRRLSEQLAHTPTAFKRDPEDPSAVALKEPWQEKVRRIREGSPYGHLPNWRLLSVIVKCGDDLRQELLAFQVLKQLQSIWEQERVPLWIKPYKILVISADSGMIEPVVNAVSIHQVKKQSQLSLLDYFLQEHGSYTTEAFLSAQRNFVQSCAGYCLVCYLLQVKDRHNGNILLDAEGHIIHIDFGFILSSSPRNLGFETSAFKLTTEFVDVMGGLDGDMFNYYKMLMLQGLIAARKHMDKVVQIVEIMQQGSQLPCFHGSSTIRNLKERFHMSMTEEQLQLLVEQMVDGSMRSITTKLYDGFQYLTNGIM
# UniProt P53350, whole entry: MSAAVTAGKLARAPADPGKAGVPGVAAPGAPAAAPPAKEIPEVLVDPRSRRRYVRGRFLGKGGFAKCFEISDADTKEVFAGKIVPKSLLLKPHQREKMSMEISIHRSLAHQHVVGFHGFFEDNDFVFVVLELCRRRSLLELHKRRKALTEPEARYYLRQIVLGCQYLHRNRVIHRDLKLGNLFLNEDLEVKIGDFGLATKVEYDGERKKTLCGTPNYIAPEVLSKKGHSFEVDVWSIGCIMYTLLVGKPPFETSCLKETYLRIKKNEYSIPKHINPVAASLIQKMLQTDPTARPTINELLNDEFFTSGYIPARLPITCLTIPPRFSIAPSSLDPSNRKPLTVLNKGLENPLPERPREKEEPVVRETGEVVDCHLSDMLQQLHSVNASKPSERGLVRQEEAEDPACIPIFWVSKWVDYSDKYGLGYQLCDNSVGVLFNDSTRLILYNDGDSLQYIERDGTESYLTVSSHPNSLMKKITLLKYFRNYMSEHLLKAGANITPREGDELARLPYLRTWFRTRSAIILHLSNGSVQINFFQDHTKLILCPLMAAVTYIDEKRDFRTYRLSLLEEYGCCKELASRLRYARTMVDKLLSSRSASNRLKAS
# Where a name gives a salt, the structure may show the parent alone. This is one part of the list. The calls rarely recur for the same compound in another form.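 Kinases, fused to nanoluciferase, were expressed in K562 cells; luminescence was measured every 4 h from 2 to 18 h as percent of control (DMSO = 100%, positive control = 0%). A time point is decreased if signal falls significantly (2 sigma). Hits were called by the authors by a rule that is not shown; the count of time points alone does not decide it.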
# Key:
# Assay in all cases: kinase-Nluc reporter destabilization hit call (1 = scored as downregulated) (binary); higher = compound decreases kinase abundance
# Conditions in all cases: K562; 2-18 h
# MAPK1 = MAPK1 (UniProt P28482)
# MAPK4 = MAPK4 (UniProt P31152)
# MAPKAPK2 = MAPKAPK2 (UniProt P49137)
# MKNK1 = MKNK1 (UniProt Q9BUB5)
# NTRK2 = NTRK2 (UniProt Q16620)
# NTRK3 = NTRK3 (UniProt Q16288)
# PAK4 = PAK4 (UniProt O96013)
# PBK = PBK (UniProt Q96KB5)
# PDGFRB = PDGFRB (UniProt P09619)
# PDK1 = PDK1 (UniProt Q15118)
# PDPK1 = PDPK1 (UniProt O15530)
# PIK4CA = PIK4CA (UniProt P42356)
# PIK4CB = PIK4CB (UniProt Q9UBF8)
# PLK1 = PLK1 (UniProt P53350)
# PRKAA1 = PRKAA1 (UniProt Q13131)
# PRKCA = PRKCA (UniProt P17252)
# PTK2 = PTK2 (UniProt Q05397)
# PTK2B = PTK2B (UniProt Q14289)
# RAF1 = RAF1 (UniProt P04049)
# [1] = molecular target: RAF1_S257L (clone: RAF1_mut) (UniProt P04049)
Structure (SMILES),kinase-Nluc reporter destabilization hit call (MAPK1),kinase-Nluc reporter destabilization hit call (MAPK4),kinase-Nluc reporter destabilization hit call (MAPKAPK2),kinase-Nluc reporter destabilization hit call (MKNK1),kinase-Nluc reporter destabilization hit call (NTRK2),kinase-Nluc reporter destabilization hit call (NTRK3),kinase-Nluc reporter destabilization hit call (PAK4),kinase-Nluc reporter destabilization hit call (PBK),kinase-Nluc reporter destabilization hit call (PDGFRB),kinase-Nluc reporter destabilization hit call (PDK1),kinase-Nluc reporter destabilization hit call (PDPK1),kinase-Nluc reporter destabilization hit call (PIK4CA),kinase-Nluc reporter destabilization hit call (PIK4CB),kinase-Nluc reporter destabilization hit call (PLK1),kinase-Nluc reporter destabilization hit call (PRKAA1),kinase-Nluc reporter destabilization hit call (PRKCA),kinase-Nluc reporter destabilization hit call (PTK2),kinase-Nluc reporter destabilization hit call (PTK2B),kinase-Nluc reporter destabilization hit call (RAF1),kinase-Nluc reporter destabilization hit call [1]
CCC(C)(C)C(=O)N(O)Cc1ccccc1 (10 µM),inactive: 0,inactive: 0,inactive: 0,inactive: 0,inactive: 0,inactive: 0,inactive: 0,inactive: 0,inactive: 0,inactive: 0,inactive: 0,inactive: 0,inactive: 0,inactive: 0,inactive: 0,inactive: 0,inactive: 0,inactive: 0,inactive: 0,inactive: 0
Cc1cc2cc(Oc3ccnc(Nc4cccc(CS(=O)(=O)NCCN(C)C)c4)n3)ccc2[nH]1 [Sulfatinib] (10 µM),inactive: 0,inactive: 0,inactive: 0,inactive: 0,inactive: 0,inactive: 0,inactive: 0,inactive: 0,inactive: 0,inactive: 0,inactive: 0,inactive: 0,inactive: 0,inactive: 0,inactive: 0,inactive: 0,inactive: 0,inactive: 0,inactive: 0,active: 1
COc1cc(N2CCC(N3CCN(C)CC3)CC2)ccc1Nc1nc2c(c(Nc3ccccc3S(=O)(=O)NC(C)C)n1)CCN2 [Conteltinib] (10 µM),inactive: 0,inactive: 0,inactive: 0,inactive: 0,inactive: 0,inactive: 0,inactive: 0,inactive: 0,inactive: 0,inactive: 0,inactive: 0,inactive: 0,inactive: 0,inactive: 0,inactive: 0,inactive: 0,inactive: 0,inactive: 0,inactive: 0,inactive: 0
O[C@H]1CC[C@H](Nc2ncc3nc(Nc4c(F)cc(F)cc4F)n([C@H]4CCOC4)c3n2)CC1 [Tanzisertib] (10 µM),inactive: 0,inactive: 0,inactive: 0,inactive: 0,inactive: 0,inactive: 0,inactive: 0,inactive: 0,inactive: 0,inactive: 0,inactive: 0,inactive: 0,inactive: 0,inactive: 0,inactive: 0,inactive: 0,inactive: 0,inactive: 0,inactive: 0,inactive: 0
COc1cc(N2CCC(N(C)C)CC2)ccc1Nc1ncc(Cl)c(Nc2ccccc2P(C)(C)=O)n1 (2.5 µM),inactive: 0,inactive: 0,inactive: 0,inactive: 0,inactive: 0,inactive: 0,inactive: 0,inactive: 0,inactive: 0,inactive: 0,inactive: 0,inactive: 0,inactive: 0,inactive: 0,inactive: 0,inactive: 0,inactive: 0,inactive: 0,inactive: 0,inactive: 0
COc1cc(C(C)=O)cc(OC)c1O [Acetosyringone] (10 µM),inactive: 0,inactive: 0,inactive: 0,inactive: 0,inactive: 0,inactive: 0,inactive: 0,inactive: 0,inactive: 0,inactive: 0,inactive: 0,inactive: 0,inactive: 0,inactive: 0,inactive: 0,inactive: 0,inactive: 0,inactive: 0,inactive: 0,inactive: 0
"CC(C)C[C@H](NC(=O)[C@H](CCCCN)NC(=O)[C@H](CO)NC(=O)[C@@H](N)CC(C)C)C(N)=O [LSKL, Inhibitor of Thrombospondin (TSP-1) (TFA)] (10 µM)",inactive: 0,inactive: 0,inactive: 0,inactive: 0,inactive: 0,inactive: 0,inactive: 0,inactive: 0,inactive: 0,inactive: 0,inactive: 0,inactive: 0,inactive: 0,inactive: 0,inactive: 0,inactive: 0,inactive: 0,inactive: 0,inactive: 0,inactive: 0
CC[C@H](Nc1ncnc2[nH]cnc12)c1oc2ccccc2c(=O)c1-c1cccc(F)c1 [Tenalisib] (10 µM),inactive: 0,inactive: 0,inactive: 0,inactive: 0,inactive: 0,inactive: 0,inactive: 0,inactive: 0,inactive: 0,inactive: 0,inactive: 0,inactive: 0,inactive: 0,inactive: 0,inactive: 0,inactive: 0,inactive: 0,inactive: 0,inactive: 0,inactive: 0
CCc1ccc(C(=O)COc2ccc(CC3SC(=O)NC3=O)cc2)nc1 (stereo not given) (10 µM),inactive: 0,inactive: 0,inactive: 0,inactive: 0,inactive: 0,inactive: 0,inactive: 0,inactive: 0,inactive: 0,inactive: 0,inactive: 0,inactive: 0,inactive: 0,inactive: 0,inactive: 0,inactive: 0,inactive: 0,inactive: 0,inactive: 0,inactive: 0
Nc1ncc(-c2ccc(C(=O)N3CCNCC3)cc2)nc1-c1ccc(C(F)(F)F)cc1 (10 µM),inactive: 0,inactive: 0,inactive: 0,inactive: 0,inactive: 0,inactive: 0,inactive: 0,inactive: 0,inactive: 0,inactive: 0,inactive: 0,inactive: 0,inactive: 0,inactive: 0,inactive: 0,inactive: 0,inactive: 0,inactive: 0,inactive: 0,inactive: 0
Nc1nc2cc(-c3ccc4ncc(C(=O)N5CCOCC5)n4c3)ccc2o1 [Serabelisib] (10 µM),inactive: 0,inactive: 0,inactive: 0,inactive: 0,inactive: 0,inactive: 0,inactive: 0,inactive: 0,inactive: 0,inactive: 0,inactive: 0,inactive: 0,inactive: 0,inactive: 0,inactive: 0,inactive: 0,inactive: 0,inactive: 0,inactive: 0,inactive: 0
c1ccc(-c2nn3c(c2-c2ccnc4cc(OCCN5CCOCC5)ccc24)CCC3)nc1 (10 µM),inactive: 0,inactive: 0,inactive: 0,inactive: 0,inactive: 0,inactive: 0,inactive: 0,inactive: 0,inactive: 0,inactive: 0,inactive: 0,inactive: 0,inactive: 0,inactive: 0,inactive: 0,inactive: 0,inactive: 0,inactive: 0,inactive: 0,inactive: 0
Cn1cc(-c2cc3c(N4CCN(c5ncc([C@@](C)(N)c6ccc(F)cc6)cn5)CC4)ncnn3c2)cn1 [Avapritinib] (2.5 µM),inactive: 0,inactive: 0,inactive: 0,inactive: 0,inactive: 0,inactive: 0,inactive: 0,inactive: 0,inactive: 0,inactive: 0,inactive: 0,inactive: 0,inactive: 0,inactive: 0,inactive: 0,inactive: 0,inactive: 0,inactive: 0,inactive: 0,inactive: 0
COc1ccc2c(Oc3ccc(NC(=O)c4c(C)n(CC(C)(C)O)n(-c5ccccc5)c4=O)cc3F)ccnc2c1 (2.5 µM),inactive: 0,inactive: 0,inactive: 0,inactive: 0,inactive: 0,inactive: 0,inactive: 0,inactive: 0,inactive: 0,inactive: 0,inactive: 0,inactive: 0,inactive: 0,inactive: 0,inactive: 0,inactive: 0,inactive: 0,inactive: 0,inactive: 0,inactive: 0
Cc1cc2ncc(-c3ccccc3)nc2cc1C (10 µM),inactive: 0,inactive: 0,inactive: 0,inactive: 0,inactive: 0,inactive: 0,inactive: 0,inactive: 0,inactive: 0,inactive: 0,inactive: 0,inactive: 0,inactive: 0,inactive: 0,inactive: 0,inactive: 0,inactive: 0,inactive: 0,inactive: 0,inactive: 0
CC(C)(C)Cn1c(N)nc2ccc(-c3[nH]c(C(C)(C)C)nc3-c3ccc(F)cc3)nc21 [Ralimetinib dimesylate] (2.5 µM),inactive: 0,inactive: 0,inactive: 0,inactive: 0,inactive: 0,inactive: 0,inactive: 0,inactive: 0,inactive: 0,inactive: 0,inactive: 0,inactive: 0,inactive: 0,inactive: 0,inactive: 0,inactive: 0,inactive: 0,inactive: 0,inactive: 0,inactive: 0
O=c1ccc2ccc(O)c(O)c2o1 [Daphnetin] (10 µM),inactive: 0,inactive: 0,inactive: 0,inactive: 0,inactive: 0,inactive: 0,inactive: 0,inactive: 0,inactive: 0,inactive: 0,inactive: 0,inactive: 0,inactive: 0,inactive: 0,inactive: 0,inactive: 0,inactive: 0,inactive: 0,inactive: 0,inactive: 0
C[C@H]1Cc2ccccc2N1C(=O)Cc1nc(N2CCOCC2)cc(=O)[nH]1 (2.5 µM),inactive: 0,inactive: 0,inactive: 0,inactive: 0,inactive: 0,inactive: 0,inactive: 0,inactive: 0,inactive: 0,inactive: 0,inactive: 0,inactive: 0,inactive: 0,inactive: 0,inactive: 0,inactive: 0,inactive: 0,inactive: 0,inactive: 0,inactive: 0

# Arranged by molecular weight (ascending): 3 of the compounds above
Structure (SMILES),kinase-Nluc reporter destabilization hit call (MAPK1),kinase-Nluc reporter destabilization hit call (MAPK4),kinase-Nluc reporter destabilization hit call (MAPKAPK2),kinase-Nluc reporter destabilization hit call (MKNK1),kinase-Nluc reporter destabilization hit call (NTRK2),kinase-Nluc reporter destabilization hit call (NTRK3),kinase-Nluc reporter destabilization hit call (PAK4),kinase-Nluc reporter destabilization hit call (PBK),kinase-Nluc reporter destabilization hit call (PDGFRB),kinase-Nluc reporter destabilization hit call (PDK1),kinase-Nluc reporter destabilization hit call (PDPK1),kinase-Nluc reporter destabilization hit call (PIK4CA),kinase-Nluc reporter destabilization hit call (PIK4CB),kinase-Nluc reporter destabilization hit call (PLK1),kinase-Nluc reporter destabilization hit call (PRKAA1),kinase-Nluc reporter destabilization hit call (PRKCA),kinase-Nluc reporter destabilization hit call (PTK2),kinase-Nluc reporter destabilization hit call (PTK2B),kinase-Nluc reporter destabilization hit call (RAF1),kinase-Nluc reporter destabilization hit call [1]
COc1cc(C(C)=O)cc(OC)c1O [Acetosyringone] (10 µM),inactive: 0,inactive: 0,inactive: 0,inactive: 0,inactive: 0,inactive: 0,inactive: 0,inactive: 0,inactive: 0,inactive: 0,inactive: 0,inactive: 0,inactive: 0,inactive: 0,inactive: 0,inactive: 0,inactive: 0,inactive: 0,inactive: 0,inactive: 0
Cc1cc2ncc(-c3ccccc3)nc2cc1C (10 µM),inactive: 0,inactive: 0,inactive: 0,inactive: 0,inactive: 0,inactive: 0,inactive: 0,inactive: 0,inactive: 0,inactive: 0,inactive: 0,inactive: 0,inactive: 0,inactive: 0,inactive: 0,inactive: 0,inactive: 0,inactive: 0,inactive: 0,inactive: 0
COc1ccc2c(Oc3ccc(NC(=O)c4c(C)n(CC(C)(C)O)n(-c5ccccc5)c4=O)cc3F)ccnc2c1 (2.5 µM),inactive: 0,inactive: 0,inactive: 0,inactive: 0,inactive: 0,inactive: 0,inactive: 0,inactive: 0,inactive: 0,inactive: 0,inactive: 0,inactive: 0,inactive: 0,inactive: 0,inactive: 0,inactive: 0,inactive: 0,inactive: 0,inactive: 0,inactive: 0
